From PubChem BioAssay (EPA / NIEHS)
This list was built around the results that the source calls inconclusive (neither active nor inactive); the mix of calls is not that of the screen. For some of these results: Potencies beside an inconclusive call are fits to weak or partial responses and may not hold up. Calls of active or inactive are those of the source. Rule for the calls, unless noted: active = hit-call score of the fitted dose curve at least 0.9, where 1 is the maximum; inconclusive = response in the unintended direction; inactive = score below 0.9.

Amino acid sequences for entries named in this document (tags omitted). A change or cut given only in a name is not applied to a line headed by its entry.
UniProt P33261, whole entry, looked up: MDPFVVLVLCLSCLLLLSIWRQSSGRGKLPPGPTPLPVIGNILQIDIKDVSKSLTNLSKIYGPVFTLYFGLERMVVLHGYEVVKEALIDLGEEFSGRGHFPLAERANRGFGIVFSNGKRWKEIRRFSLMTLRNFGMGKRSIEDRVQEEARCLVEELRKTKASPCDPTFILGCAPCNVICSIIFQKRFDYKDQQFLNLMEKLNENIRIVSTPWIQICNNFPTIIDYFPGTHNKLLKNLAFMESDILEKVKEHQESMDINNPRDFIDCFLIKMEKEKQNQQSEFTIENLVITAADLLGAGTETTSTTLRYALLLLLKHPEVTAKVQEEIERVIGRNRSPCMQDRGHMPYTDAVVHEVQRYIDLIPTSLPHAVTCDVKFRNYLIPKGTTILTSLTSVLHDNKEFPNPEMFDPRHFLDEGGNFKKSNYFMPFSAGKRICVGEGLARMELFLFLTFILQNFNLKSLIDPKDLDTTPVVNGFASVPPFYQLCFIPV
UniProt P04406: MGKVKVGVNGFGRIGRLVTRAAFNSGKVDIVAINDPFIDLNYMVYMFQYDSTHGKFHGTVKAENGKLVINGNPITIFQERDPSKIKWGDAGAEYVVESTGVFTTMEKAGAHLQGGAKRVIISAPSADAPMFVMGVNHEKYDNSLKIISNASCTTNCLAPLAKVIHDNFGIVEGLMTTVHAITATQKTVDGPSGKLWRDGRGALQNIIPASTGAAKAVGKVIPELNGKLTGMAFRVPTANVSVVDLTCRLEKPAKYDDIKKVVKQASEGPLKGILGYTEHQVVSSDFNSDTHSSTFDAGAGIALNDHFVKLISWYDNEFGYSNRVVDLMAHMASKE
UniProt P08684, whole entry, looked up: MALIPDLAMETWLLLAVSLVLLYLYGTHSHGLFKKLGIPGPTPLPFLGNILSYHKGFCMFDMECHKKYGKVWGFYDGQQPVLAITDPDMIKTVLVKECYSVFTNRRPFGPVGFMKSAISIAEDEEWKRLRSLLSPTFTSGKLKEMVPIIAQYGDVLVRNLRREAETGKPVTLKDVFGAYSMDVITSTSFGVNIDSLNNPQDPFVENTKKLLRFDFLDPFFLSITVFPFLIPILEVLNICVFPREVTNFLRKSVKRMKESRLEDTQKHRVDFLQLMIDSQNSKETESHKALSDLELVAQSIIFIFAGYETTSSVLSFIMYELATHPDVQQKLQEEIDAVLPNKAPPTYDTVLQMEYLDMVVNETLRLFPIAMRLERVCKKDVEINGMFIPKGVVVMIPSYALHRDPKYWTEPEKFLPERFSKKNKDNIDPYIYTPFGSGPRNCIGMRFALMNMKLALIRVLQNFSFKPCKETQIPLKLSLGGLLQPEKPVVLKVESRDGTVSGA

Legend:
[1] = read-out: xenobiotic metabolism (CYP1A2), CYP1A2 (gene 1544); test: CLD_CYP1A2_6hr: CellzDirect (CLD) Gene Expression Assay for xenobiotic metabolism (CYP1A2) at 6 hours (AID 2283663);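 for AC50: potency is for induction meaning a rise in mRNA above DMSO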
Summary of the method: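 Primary human hepatocytes from two donor preparations, dosed daily with multiple concentrations in 0.2% DMSO and harvested at 6 h. CYP1A2 mRNA induction measured by chemiluminescent qNPA, gain of signal fitted against DMSO; cytotoxicity flagged morphologically.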

[2] = read-out: xenobiotic metabolism (CYP2C9), CYP2C9 (gene 1559); test: CLD_CYP2C9_6hr: CellzDirect (CLD) Gene Expression Assay for xenobiotic metabolism (CYP2C9) at 6 hours (AID 2283664)
Summary of the method: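 Primary human hepatocytes dosed daily with test chemicals at multiple concentrations; harvested at 6 h. CYP2C9 mRNA induction measured by qNPA chemiluminescence. Gain of signal fitted against 0.2% DMSO vehicle; cytotoxicity annotated from phase-contrast morphology.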

[3] = Tanguay_ZF_120hpf_TR_legacy: (Legacy) Oregon State University Tanguay Lab 120 Hour Post-fertilization zebrafish Assay for Touch Response (AID 2283667)
Summary of the method: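 Tropical 5D wild-type zebrafish embryos statically exposed to 120 hpf at 28°C, sealed and dark-covered, 0.64% DMSO final; touch response scored as present/absent by brightfield microscopy at 120 hpf. Trimethyltin chloride 5 uM positive control; dead embryos not scored.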

[4] = CLD_ACTIN_24hr: CellzDirect (CLD) Gene Expression Assay for Baseline Control (Actin) at 24 hours (AID 2283670)
Summary of the method: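 Primary human hepatocytes dosed over multiple concentrations with 0.2% DMSO vehicle; actin mRNA measured at 24 h by qNPA chemiluminescence. Background control endpoint, fitted as gain of signal versus DMSO.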

[5] = read-out: xenobiotic metabolism (CYP1A1), CYP1A1 (gene 1543); test: CLD_CYP1A1_24hr: CellzDirect (CLD) Gene Expression Assay for xenobiotic metabolism (CYP1A1) at 24 hours (AID 2283673);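 note: CYP1A1 mRNA level by quantitative nuclease protection with chemiluminescence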
Summary of the method: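 Primary human hepatocytes dosed daily with fresh solutions in 0.2% DMSO vehicle. mRNA measured at 24 h by quantitative nuclease protection assay with chemiluminescence; gain-of-signal fit versus DMSO, with morphology-based cytotoxicity flags.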

[6] = CLD_ACTIN_6hr: CellzDirect (CLD) Gene Expression Assay for Baseline Control (Actin) at 6 hours (AID 2283676)
Summary of the method: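 Primary human hepatocytes dosed with fresh chemical solutions (vehicle 0.2% DMSO), harvested at 6 h. Actin mRNA quantified by quantitative nuclease protection assay with chemiluminescent read-out, as background control relative to DMSO.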

[7] = read-out: Cytochrome P450 2C19 (Homo sapiens) (UniProt P33261); test: CLD_CYP2C19_6hr: CellzDirect (CLD) Gene Expression Assay for xenobiotic metabolism (CYP2C19) at 6 hours (AID 2283678)
Summary of the method: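 Primary human hepatocytes from two donor preparations were dosed daily, with 0.2% DMSO as vehicle, and harvested 6 h after dosing. CYP2C19 mRNA induction was measured by qNPA chemiluminescence and fitted as gain of signal against DMSO.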

[8] = read-out: Glyceraldehyde-3-phosphate dehydrogenase (Homo sapiens) (UniProt P04406); test: CLD_GAPDH_6hr: CellzDirect (CLD) Gene Expression Assay for Baseline Control (Glyceraldehyde 3-phosphate dehydrogenase) at 6 hours (AID 2283681)
Summary of the method: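 Primary human hepatocytes from two donor preparations, dosed at multiple concentrations with 0.2% DMSO vehicle; GAPDH mRNA measured 6 h after dosing by chemiluminescent quantitative nuclease protection assay (qNPA) on denatured lysates. Serves as background control; cytotoxicity annotated by morphology.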

[9] = read-out: HMG-CoA synthase (HMGCS2), HMGCS2 (gene 3158); test: CLD_HMGCS2_6hr: CellzDirect (CLD) Gene Expression Assay for HMG-CoA synthase (HMGCS2) at 6 hours (AID 2283682);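 note: actives raise HMGCS2 transcript above the 0.2% DMSO vehicle baseline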
Summary of the method: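 Primary human hepatocytes dosed daily with fresh chemical, 0.2% DMSO vehicle; HMGCS2 mRNA measured at 6 h by qNPA chemiluminescence. Gain of signal fitted against DMSO; cytotoxicity flagged from phase-contrast morphology.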

[10] = read-out: organic anion transporter (SLCO1B1), SLCO1B1 (gene 10599); test: CLD_SLCO1B1_6hr: CellzDirect (CLD) Gene Expression Assay for organic anion transporter (SLCO1B1) at 6 hours (AID 2283668);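 note: active means mRNA induction above DMSO baseline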
Summary of the method: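 Primary human hepatocytes dosed daily with test chemicals (multiple concentrations) in 0.2% DMSO vehicle; harvested at 6 h. SLCO1B1 mRNA quantified by qNPA chemiluminescence, fitted as gain-of-signal versus DMSO; cytotoxicity from phase-contrast morphology flagged alongside.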

[11] = read-out: ABC Transporter (ABCB11), ABCB11 (gene 8647); test: CLD_ABCB11_24hr: CellzDirect (CLD) Gene Expression Assay for ABC Transporter (ABCB11) at 24 hours (AID 2283674; active = hit-call score of the fitted dose curve at least 0.9, where 1 is the maximum; inactive = score below 0.9)
Summary of the method: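 Primary human hepatocytes were dosed daily for two days, with 0.2% DMSO vehicle. ABCB11 mRNA induction was measured at 24 hours by quantitative nuclease protection assay with chemiluminescence. Gain of signal was fitted relative to DMSO.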

[12] = read-out: ABC Transporter (ABCB11), ABCB11 (gene 8647); test: CLD_ABCB11_6hr: CellzDirect (CLD) Gene Expression Assay for ABC Transporter (ABCB11) at 6 hours (AID 2283675);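 note: hits raise ABCB11 mRNA level so AC50 marks induction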
Summary of the method: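 Human primary hepatocytes (two donor preparations) given fresh chemical daily at multiple concentrations, vehicle 0.2% DMSO. ABCB11 mRNA induction measured 6 h after dosing by qNPA chemiluminescence versus DMSO; cytotoxicity annotated from morphology.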

[13] = read-out: alkyl and aryl transferase (GSTA2), GSTA2 (gene 2939); test: CLD_GSTA2_6hr: CellzDirect (CLD) Gene Expression Assay for alkyl and aryl transferase (GSTA2) at 6 hours (AID 2283666)
Summary of the method: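 Primary human hepatocytes from two donor preparations were dosed daily with fresh compound at multiple concentrations, 0.2% DMSO vehicle. GSTA2 mRNA was measured at 6 hours by qNPA chemiluminescence; induction fitted relative to DMSO, with cytotoxicity flagged morphologically.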

[14] = read-out: sulfotransferase (SULT2A), SULT2A1 (gene 6822); test: CLD_SULT2A_6hr: CellzDirect (CLD) Gene Expression Assay for sulfotransferase (SULT2A) at 6 hours (AID 2283669);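 note: hits raise transcript level above the DMSO vehicle baseline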
Summary of the method: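 Primary human hepatocytes from two donor preparations were dosed daily with chemicals or 0.2% DMSO and harvested at 6 h. Transcript induction read by qNPA chemiluminescence, fitted for gain of signal relative to DMSO; morphology-based cytotoxicity annotated.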

[15] = read-out: Cytochrome P450 3A4 (Homo sapiens) (UniProt P08684); test: CLD_CYP3A4_6hr: CellzDirect (CLD) Gene Expression Assay for xenobiotic metabolism (CYP3A4) at 6 hours (AID 2283680)
Summary of the method: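 Primary human hepatocytes (two donor preparations) dosed; CYP3A4 mRNA harvested at 6 h and quantified by qNPA chemiluminescence. Gain of signal fitted against 0.2% DMSO vehicle; cytotoxicity flagged by phase-contrast morphology.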

[16] = read-out: ABC Transporter (ABCB1), ABCB1 (gene 5243); test: CLD_ABCB1_24hr: CellzDirect (CLD) Gene Expression Assay for ABC Transporter (ABCB1) at 24 hours (AID 2283684)
Summary of the method: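 Primary human hepatocytes, two donor preparations, dosed daily with fresh solutions; vehicle 0.2% DMSO; harvested at 24 h. ABCB1 mRNA measured by quantitative nuclease protection assay (chemiluminescence); morphology-based cytotoxicity annotated.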

[17] = read-out: xenobiotic metabolism (CYP1A2), CYP1A2 (gene 1544); test: CLD_CYP1A2_24hr: CellzDirect (CLD) Gene Expression Assay for xenobiotic metabolism (CYP1A2) at 24 hours (AID 2283683)
Summary of the method: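 Primary human hepatocytes from two donor preparations dosed daily with multiple concentrations of chemical, 0.2% DMSO vehicle. CYP1A2 mRNA at 24 h quantified by qNPA chemiluminescence; gain of signal analyzed relative to DMSO. Cytotoxicity flagged by phase-contrast morphology.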

Measured: AC50

COP(=S)(OC)Oc1ccc([N+](=O)[O-])cc1
inactive: [3]
inconclusive: [2] 20 µM | [4] 20 µM | [6] 2.08 µM | [7] 20 µM | [8] 20 µM | [9] 0.0004 µM
active: [1] 3.16 µM | [5] 4.2 µM

CC(C)NC(=O)N1CC(=O)N(c2cc(Cl)cc(Cl)c2)C1=O
active: [1] 20 µM
inactive: [3] | [11] | [6] | [8]
inconclusive: [2] 20 µM | [10] 20 µM | [4] 20 µM | [12] 20 µM | [7] 20 µM | [9] 20 µM

O=[N+]([O-])c1c(Cl)c(Cl)c(Cl)c(Cl)c1Cl
inconclusive: [1] 0.00109 µM | [2] 20 µM | [14] 0.00385 µM | [6] 20 µM | [7] 20 µM | [15] 20 µM | [9] 20 µM
inactive: [13] | [4] | [16]

CC(C)Oc1cc(-n2nc(C(C)(C)C)oc2=O)c(Cl)cc1Cl
active: [1] 2.19 µM
inactive: [8] | [16]
inconclusive: [2] 1.9 µM | [10] 20 µM | [4] 2.68 µM | [12] 0.862 µM | [9] 20 µM

CCCSP(=O)(OCC)SCCC
inactive: [1] | [2] | [10] | [14] | [8]
inconclusive: [13] 20 µM | [3] 4.93 µM | [6] 20 µM

CNC(=O)ON=C(SC)C(=O)N(C)C
inactive: [2] | [10] | [7]
inconclusive: [1] 0.00348 µM | [5] 0.00113 µM | [12] 20 µM

CCCCOC(=O)[C@@H](C)Oc1ccc(Oc2ccc(C#N)cc2F)cc1
inconclusive: [2] 20 µM | [13] 0.00616 µM | [10] 20 µM | [14] 20 µM | [12] 20 µM | [17] 0.000536 µM
inactive: [1] | [7] | [9]
